{"source": "patent US20040253599A1", "about": "“Novel protein, its dna and use thereof” (priority 2001, published 2004)", "tested_on": "expression of rat CLCA1 gene in SPOC-1 cells", "assay": "Inhibition of IL-13-induced expression of rat CLCA1 gene in SPOC-1 cells (QuantiGene bDNA luminescence)", "type": "cell-based", "conditions": "recombinant mouse IL-13 plus wortmannin 1, 10 and 100 μM, 24 hours, FIG. 2", "note": "At least one compound was matched to its structure with a doubt left."}
{"compound": "COC[C@H]1OC(=O)c2coc3c2[C@@]1(C)C1=C(C3=O)[C@@H]2CCC(=O)[C@@]2(C)C[C@H]1OC(C)=O", "note": "[wortmannin]", "values": [{"measurement": "expression of rat CLCA1 (mRNA, luminescence intensity relative to control as 100%)", "value": "suppresses the expression of rat CLCA 1 dose-dependently"}]}
